Results as given in publication PMC10682194, “Structural insights into ligand recognition and selectivity of the human hydroxycarboxylic acid receptor HCAR2” (Cell Discovery, 2023).
These are yes or no findings as the source states them, for the method shown. Binding seen in cells or lysates may run through a third protein. Some results given as binding are weak or reduced against the parent protein; the word gives no strength.

Chains of the proteins cited; added tags and fusions are not shown.
UniProt Q8TDS4: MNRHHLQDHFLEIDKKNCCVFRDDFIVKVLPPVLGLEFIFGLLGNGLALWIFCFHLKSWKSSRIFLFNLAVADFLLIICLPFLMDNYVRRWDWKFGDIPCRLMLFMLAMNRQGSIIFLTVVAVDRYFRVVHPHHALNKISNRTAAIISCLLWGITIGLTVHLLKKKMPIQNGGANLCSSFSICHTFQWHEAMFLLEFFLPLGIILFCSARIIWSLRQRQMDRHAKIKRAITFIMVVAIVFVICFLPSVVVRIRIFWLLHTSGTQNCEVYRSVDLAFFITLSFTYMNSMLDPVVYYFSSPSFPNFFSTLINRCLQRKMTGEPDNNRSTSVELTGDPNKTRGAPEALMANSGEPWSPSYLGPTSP
UniProt P49407: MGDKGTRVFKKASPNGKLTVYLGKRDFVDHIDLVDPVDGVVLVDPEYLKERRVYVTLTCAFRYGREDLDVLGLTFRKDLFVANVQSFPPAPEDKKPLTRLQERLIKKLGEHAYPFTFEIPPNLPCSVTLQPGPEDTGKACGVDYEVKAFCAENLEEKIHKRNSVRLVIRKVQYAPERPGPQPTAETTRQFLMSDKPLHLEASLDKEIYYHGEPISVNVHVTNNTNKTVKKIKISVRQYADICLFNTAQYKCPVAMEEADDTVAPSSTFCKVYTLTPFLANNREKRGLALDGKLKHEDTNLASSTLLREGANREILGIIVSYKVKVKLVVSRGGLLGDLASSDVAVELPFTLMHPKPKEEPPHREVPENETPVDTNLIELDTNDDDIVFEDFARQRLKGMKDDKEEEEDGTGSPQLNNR

Target: HCAR2-SmBiT (human) (UniProt Q8TDS4)
Assay: split reporter; HEK293 co-transfected with HCAR2-SmBiT and LgBiT-β-arrestin1; 10 μM coelenterazine H; different concentrations of niacin, acipimox or MK-6892; 37 °C

binding: binds
Substance: LgBiT-β-arrestin1 (from UniProt P49407 1-418)
